# These are yes or no findings as the source states them, for the method shown. In cells and extracts the contact can be indirect. Some entries that bind do so weakly or less than the wild type.
# Amino acid sequences for entries named in this document (tags omitted).
# UniProt Q92831: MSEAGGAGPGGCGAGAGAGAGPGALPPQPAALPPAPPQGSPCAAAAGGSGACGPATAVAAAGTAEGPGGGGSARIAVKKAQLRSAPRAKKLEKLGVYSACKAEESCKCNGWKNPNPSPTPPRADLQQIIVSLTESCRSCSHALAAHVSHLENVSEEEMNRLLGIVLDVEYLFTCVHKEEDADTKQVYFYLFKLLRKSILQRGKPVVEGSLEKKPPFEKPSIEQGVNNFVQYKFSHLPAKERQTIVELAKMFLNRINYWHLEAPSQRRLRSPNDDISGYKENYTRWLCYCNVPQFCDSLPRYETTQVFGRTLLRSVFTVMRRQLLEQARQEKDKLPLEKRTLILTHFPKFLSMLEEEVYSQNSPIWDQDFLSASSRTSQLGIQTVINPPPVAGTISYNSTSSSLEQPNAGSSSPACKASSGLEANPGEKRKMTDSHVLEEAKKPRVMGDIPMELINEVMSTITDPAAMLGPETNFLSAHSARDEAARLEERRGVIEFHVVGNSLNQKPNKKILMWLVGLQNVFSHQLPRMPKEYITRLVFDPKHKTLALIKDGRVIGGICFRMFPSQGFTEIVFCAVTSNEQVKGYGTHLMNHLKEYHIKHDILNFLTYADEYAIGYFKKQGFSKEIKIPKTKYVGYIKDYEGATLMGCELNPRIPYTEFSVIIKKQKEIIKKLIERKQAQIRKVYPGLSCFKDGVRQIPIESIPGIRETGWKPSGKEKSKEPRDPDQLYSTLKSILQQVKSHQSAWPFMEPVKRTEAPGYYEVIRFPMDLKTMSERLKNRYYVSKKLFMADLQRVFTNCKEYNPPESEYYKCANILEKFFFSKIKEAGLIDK
# UniProt Q9Y4A5: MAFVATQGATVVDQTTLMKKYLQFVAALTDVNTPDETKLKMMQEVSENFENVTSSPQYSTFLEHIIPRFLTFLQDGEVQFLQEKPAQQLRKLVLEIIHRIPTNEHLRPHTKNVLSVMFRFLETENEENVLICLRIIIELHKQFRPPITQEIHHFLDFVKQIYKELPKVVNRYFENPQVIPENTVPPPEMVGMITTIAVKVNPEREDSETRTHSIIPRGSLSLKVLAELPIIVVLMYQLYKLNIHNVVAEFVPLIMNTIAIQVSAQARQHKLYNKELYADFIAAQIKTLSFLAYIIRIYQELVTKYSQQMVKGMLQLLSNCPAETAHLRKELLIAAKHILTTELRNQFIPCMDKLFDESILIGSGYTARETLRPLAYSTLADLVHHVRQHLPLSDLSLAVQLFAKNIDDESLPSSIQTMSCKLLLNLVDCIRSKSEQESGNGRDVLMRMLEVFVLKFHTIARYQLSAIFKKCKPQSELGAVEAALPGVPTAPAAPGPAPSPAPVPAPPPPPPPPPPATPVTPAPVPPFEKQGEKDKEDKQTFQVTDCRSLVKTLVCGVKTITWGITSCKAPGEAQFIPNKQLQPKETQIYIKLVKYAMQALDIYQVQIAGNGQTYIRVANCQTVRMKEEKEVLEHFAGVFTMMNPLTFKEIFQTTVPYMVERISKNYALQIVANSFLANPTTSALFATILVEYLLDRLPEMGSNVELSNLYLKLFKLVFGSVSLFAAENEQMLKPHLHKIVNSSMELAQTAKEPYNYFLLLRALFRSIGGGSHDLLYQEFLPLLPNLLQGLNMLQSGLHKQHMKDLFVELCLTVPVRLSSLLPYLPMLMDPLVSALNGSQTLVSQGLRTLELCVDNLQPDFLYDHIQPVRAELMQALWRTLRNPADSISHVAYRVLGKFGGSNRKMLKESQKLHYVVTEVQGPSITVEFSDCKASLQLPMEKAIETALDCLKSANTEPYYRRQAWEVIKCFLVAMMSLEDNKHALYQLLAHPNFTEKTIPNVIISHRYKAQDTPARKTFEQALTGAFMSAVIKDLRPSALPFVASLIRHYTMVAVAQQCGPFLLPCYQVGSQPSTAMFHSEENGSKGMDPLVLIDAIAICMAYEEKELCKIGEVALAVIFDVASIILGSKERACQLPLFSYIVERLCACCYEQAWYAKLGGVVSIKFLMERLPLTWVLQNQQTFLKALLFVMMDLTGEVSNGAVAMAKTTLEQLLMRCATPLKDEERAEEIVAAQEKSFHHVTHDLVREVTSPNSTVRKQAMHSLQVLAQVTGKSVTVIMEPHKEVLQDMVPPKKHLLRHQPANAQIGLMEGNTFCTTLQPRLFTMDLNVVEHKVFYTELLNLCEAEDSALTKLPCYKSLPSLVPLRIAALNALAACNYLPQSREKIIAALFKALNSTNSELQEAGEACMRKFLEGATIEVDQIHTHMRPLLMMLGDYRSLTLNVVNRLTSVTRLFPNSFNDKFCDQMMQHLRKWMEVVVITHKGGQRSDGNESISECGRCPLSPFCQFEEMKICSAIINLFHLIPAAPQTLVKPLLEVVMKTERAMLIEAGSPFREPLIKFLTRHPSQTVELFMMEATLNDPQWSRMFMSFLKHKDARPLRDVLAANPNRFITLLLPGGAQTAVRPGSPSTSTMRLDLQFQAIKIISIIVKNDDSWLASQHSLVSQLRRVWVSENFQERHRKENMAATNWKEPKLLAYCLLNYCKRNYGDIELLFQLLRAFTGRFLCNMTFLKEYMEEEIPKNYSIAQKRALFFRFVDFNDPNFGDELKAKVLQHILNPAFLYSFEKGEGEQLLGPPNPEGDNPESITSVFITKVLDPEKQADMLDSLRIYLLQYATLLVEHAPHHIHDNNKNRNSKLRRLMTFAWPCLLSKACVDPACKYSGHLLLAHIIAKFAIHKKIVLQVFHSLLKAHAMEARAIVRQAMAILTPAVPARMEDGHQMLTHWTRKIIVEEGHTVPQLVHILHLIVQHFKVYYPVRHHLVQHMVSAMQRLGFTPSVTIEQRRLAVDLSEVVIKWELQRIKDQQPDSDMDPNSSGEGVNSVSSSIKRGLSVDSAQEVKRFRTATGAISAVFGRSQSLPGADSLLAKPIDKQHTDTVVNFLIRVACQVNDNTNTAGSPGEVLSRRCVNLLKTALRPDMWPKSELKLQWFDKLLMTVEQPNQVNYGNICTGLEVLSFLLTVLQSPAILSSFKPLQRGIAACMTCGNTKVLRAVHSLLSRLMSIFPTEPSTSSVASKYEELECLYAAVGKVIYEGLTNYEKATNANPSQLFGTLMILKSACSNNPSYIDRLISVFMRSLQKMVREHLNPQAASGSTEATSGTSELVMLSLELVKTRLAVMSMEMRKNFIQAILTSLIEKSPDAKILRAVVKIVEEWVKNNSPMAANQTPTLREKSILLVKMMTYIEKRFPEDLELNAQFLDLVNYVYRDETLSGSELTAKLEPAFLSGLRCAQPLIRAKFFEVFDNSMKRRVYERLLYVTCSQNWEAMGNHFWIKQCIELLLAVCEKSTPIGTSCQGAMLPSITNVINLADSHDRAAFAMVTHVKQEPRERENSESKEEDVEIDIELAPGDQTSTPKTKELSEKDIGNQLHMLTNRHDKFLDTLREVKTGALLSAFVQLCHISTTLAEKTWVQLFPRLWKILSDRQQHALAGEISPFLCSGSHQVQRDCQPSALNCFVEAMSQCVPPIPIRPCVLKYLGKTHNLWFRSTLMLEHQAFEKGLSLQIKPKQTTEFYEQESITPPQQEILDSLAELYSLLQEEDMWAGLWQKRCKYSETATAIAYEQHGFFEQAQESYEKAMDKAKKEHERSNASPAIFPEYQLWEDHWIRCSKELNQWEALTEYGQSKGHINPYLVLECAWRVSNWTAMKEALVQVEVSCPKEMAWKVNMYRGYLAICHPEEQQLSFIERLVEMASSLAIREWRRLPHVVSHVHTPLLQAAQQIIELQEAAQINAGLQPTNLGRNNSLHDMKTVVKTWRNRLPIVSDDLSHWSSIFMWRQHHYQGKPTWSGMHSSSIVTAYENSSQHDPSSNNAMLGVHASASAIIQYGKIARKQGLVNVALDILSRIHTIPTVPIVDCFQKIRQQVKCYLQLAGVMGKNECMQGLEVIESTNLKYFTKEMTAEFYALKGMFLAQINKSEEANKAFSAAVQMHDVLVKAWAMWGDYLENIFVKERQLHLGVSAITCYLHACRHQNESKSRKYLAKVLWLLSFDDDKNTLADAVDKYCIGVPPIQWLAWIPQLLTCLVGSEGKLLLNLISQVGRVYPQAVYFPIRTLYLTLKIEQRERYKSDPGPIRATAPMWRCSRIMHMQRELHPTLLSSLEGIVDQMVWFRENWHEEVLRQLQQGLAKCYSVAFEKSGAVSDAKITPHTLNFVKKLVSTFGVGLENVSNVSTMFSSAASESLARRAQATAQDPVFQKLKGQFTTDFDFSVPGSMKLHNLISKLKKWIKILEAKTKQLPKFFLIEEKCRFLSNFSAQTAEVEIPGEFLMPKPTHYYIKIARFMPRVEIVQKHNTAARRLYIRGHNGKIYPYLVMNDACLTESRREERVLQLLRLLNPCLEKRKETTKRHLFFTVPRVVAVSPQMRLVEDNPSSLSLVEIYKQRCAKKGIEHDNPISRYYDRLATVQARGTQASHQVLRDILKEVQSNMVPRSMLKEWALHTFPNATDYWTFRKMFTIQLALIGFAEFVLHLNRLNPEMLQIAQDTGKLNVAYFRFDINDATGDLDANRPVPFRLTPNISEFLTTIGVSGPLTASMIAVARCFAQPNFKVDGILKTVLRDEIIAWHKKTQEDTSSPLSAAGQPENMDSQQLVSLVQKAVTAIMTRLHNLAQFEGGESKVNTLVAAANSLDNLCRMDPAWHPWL
# UniProt Q92830: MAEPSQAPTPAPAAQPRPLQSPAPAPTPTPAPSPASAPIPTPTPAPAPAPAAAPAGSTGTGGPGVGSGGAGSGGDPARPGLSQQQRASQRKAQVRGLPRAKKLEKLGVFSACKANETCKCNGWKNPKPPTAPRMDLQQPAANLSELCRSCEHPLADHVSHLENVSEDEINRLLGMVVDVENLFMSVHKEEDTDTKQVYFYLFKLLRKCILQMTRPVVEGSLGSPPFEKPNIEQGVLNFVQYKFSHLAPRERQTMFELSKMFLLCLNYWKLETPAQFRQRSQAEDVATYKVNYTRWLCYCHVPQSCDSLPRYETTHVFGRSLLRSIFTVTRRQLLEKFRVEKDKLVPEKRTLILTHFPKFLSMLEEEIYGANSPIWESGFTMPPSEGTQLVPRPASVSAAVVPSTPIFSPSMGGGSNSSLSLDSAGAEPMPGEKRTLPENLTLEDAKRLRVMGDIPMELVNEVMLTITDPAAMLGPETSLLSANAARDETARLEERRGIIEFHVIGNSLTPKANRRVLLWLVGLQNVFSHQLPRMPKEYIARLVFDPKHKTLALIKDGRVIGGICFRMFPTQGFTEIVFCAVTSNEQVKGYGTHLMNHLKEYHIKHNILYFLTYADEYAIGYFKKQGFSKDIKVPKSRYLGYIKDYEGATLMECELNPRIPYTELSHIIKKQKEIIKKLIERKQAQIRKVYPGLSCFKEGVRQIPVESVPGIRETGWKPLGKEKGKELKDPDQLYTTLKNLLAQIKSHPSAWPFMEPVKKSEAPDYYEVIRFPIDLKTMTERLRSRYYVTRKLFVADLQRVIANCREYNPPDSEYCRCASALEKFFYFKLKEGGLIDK
# What was measured:
# [1] = target: T1, William syndrome transcription factor (WSTF) (human (endogenous in HeLa)) (UniProt Q9UIG0); assay: co-IP; HeLa nuclear extract prepared at 0.2 M KCl (200 to 300 ug), antibody over night, Protein A/G beads, immunoblot; IgG as control
# T1 sequence: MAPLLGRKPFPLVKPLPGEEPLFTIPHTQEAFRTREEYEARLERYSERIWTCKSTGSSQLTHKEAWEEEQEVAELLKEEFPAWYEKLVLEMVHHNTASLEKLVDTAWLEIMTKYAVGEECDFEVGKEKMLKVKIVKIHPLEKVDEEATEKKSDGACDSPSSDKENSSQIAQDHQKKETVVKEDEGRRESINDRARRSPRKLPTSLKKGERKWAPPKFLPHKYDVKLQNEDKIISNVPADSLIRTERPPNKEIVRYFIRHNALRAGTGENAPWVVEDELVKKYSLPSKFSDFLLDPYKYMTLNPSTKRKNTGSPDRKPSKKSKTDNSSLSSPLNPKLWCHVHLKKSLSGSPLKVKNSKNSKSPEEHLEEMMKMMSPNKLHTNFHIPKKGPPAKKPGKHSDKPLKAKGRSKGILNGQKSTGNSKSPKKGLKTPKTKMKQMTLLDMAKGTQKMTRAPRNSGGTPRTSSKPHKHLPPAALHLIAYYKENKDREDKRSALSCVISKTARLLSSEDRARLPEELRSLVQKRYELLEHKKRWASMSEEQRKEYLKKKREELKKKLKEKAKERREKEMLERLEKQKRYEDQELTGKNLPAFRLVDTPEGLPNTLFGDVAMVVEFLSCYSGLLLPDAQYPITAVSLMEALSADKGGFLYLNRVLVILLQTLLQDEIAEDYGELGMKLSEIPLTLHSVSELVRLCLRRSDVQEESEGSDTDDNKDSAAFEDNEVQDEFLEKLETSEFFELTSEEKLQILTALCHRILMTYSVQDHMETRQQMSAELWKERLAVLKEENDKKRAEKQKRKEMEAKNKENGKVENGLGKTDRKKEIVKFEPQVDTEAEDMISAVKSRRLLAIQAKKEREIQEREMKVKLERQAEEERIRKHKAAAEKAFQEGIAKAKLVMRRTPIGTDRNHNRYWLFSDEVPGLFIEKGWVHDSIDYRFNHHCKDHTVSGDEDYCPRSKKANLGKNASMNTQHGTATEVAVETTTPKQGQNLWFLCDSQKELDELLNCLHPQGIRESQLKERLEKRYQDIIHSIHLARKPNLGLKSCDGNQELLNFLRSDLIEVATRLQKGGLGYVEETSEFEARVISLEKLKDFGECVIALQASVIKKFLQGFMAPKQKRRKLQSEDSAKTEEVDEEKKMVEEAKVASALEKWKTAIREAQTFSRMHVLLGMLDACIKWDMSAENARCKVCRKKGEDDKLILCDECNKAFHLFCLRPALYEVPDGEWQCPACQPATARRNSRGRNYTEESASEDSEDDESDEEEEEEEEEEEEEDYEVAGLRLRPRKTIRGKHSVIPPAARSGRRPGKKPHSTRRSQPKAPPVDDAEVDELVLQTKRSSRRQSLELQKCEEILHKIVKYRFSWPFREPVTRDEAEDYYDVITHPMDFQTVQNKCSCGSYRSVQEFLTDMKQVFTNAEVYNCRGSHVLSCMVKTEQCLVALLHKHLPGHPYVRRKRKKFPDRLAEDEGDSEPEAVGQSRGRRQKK
# [2] = target: T1, William syndrome transcription factor (WSTF) (human (endogenous in HeLa)); assay: co-IP; HeLa nuclear extract prepared at 0.7 M KCl (200 to 300 ug), antibody over night, Protein A/G beads, immunoblot; IgG as control
binding [1],binding [2],Substance
binds weakly,–,PCAF (from UniProt Q92831 1-832)
binds weakly,binds weakly,TRRAP (from UniProt Q9Y4A5 1-3859)
no binding,no binding,hGCN5 (from UniProt Q92830 1-837)
no binding,no binding,p300 (from UniProt Q09472 1-2414)

# Reference: article PMC3084792
